Experimental data taken from the supplement of paper PMC10338343.
± gives the standard deviation. This is a selection; strong and weak results do not stand in their true shares. Many of these values have a large error.

Legend:
[1] = test system: MILI (PIWIL2) piRISC loaded with piRNA #1 (26 nt); assay: pre-steady-state target cleavage rate (min^-1); higher = faster piRNA-guided slicing of the target; details: guide: piRNA #1 5'p-UGAGGUAGUAGGUUGUAUAGUAUCCA; auxiliary factor: 500 nM mouse GTSF1
Outline: (§1)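 For Cleave-'n-Seq, a transcribed, DNA-blocked target RNA library […] met 1 nM active affinity-purified piRISC with one synthetic guide at 33 °C for 0–8 or 0–960 min in HEPES–potassium acetate buffer, with or without 500 nM GTSF1 partner protein. Uncleaved targets were sequenced and normalised to depth and weakly complementary targets, with three trials pooled and k3 capped at 0.0001 min^-1. A burst-and-steady-state fit supplied the pre-steady-state cleavage rate.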

[2] = test system: EfPiwi piRISC loaded with piRNA #1 (26 nt); assay: pre-steady-state target cleavage rate (min^-1); guide: piRNA #1 5'p-UGAGGUAGUAGGUUGUAUAGUAUCCA; higher = faster piRNA-guided slicing of the target; details: auxiliary factor: 500 nM Ephydatia muelleri Gtsf1
Outline: as §1

[3] = test system: MIWI (PIWIL1) piRISC loaded with L1MC piRNA (30 nt); assay: pre-steady-state target cleavage rate (min^-1); MIWI and MILI are mouse PIWI proteins and EfPiwi is from a freshwater sponge; tags in brackets are library labels; higher = faster piRNA-guided slicing of the target; details: guide: L1MC piRNA 5'p-UAACUAAAUACUAUGCAAGCUGUAGGUCCU
Outline: as §1

[4] = auxiliary factor: none (no GTSF1)
[5] = auxiliary factor: 500 nM mouse GTSF1

GGAGACCUAUGAUAUGUACGUACUUCCUCA
pre-steady-state target cleavage rate [1]: 0.00021 ± 0.023 | pre-steady-state target cleavage rate [2]: 0.000661 ± 0.009

GGAGACCUUACUAUACAACCUUCUAGCUCA
pre-steady-state target cleavage rate [1]: 0.00187 ± 0.0035 | pre-steady-state target cleavage rate [2]: 0.00214 ± 0.0053

GGAGACGAUACUAUACUAACCUACUACCUCA
pre-steady-state target cleavage rate [1]: 0.0018 ± 0.0042 | pre-steady-state target cleavage rate [2]: 0.00448 ± 0.0044

GGAGACCUAACUAUACAACGUACUACCUCA
pre-steady-state target cleavage rate [1]: 0.0137 ± 0.0057 | pre-steady-state target cleavage rate [2]: 0.00454 ± 0.0022

GGAGACCUUACUAUACAACCUAGUACGUCA
pre-steady-state target cleavage rate [1]: 0.00165 ± 0.0047 | pre-steady-state target cleavage rate [2]: 0.00357 ± 0.0023

GGAGACCUUACUAUACAACCUACCACCUCA
pre-steady-state target cleavage rate [1]: 0.118 ± 0.015 | pre-steady-state target cleavage rate [2]: 0.00291 ± 0.003

GGAGACCUAUGUAAUGAACCUACUACCUCA
pre-steady-state target cleavage rate [1]: 0.000392 ± 0.0087 | pre-steady-state target cleavage rate [2]: 0.001 ± 0.0067

GGAGACCUAACUAUACAUCCUACAACCUCA
pre-steady-state target cleavage rate [1]: 0.246 ± 0.033 | pre-steady-state target cleavage rate [2]: 0.00371 ± 0.0038

GGAGACCUAUGUUUACAACCUUCUACCUCA
pre-steady-state target cleavage rate [1]: 0.00358 ± 0.0029 | pre-steady-state target cleavage rate [2]: 0.000855 ± 0.0065

GGAGACGAUACUAUACAUGGUACUACCUCA
pre-steady-state target cleavage rate [1]: 0.00601 ± 0.0019 | pre-steady-state target cleavage rate [2]: 0.00229 ± 0.0031

GGAGACCUAUGAUAACAACCUACUACCCCA
pre-steady-state target cleavage rate [1]: 0.00141 ± 0.006 | pre-steady-state target cleavage rate [2]: 0.00113 ± 0.0081

GGAGACCUAUGAUAUCAACCUAGAUCCUCA
pre-steady-state target cleavage rate [1]: 0.000108 ± 0.028 | pre-steady-state target cleavage rate [2]: 0.000116 ± 0.019

GGAGACCUAACUAUACAAGCUACUACCACA
pre-steady-state target cleavage rate [1]: 0.309 ± 0.029 | pre-steady-state target cleavage rate [2]: 0.00316 ± 0.0044

GGAGAGGAUACUAUACAACCUAGAUGGAGA [g9:g25:cont:t1A]
pre-steady-state target cleavage rate [1]: 0.00152 ± 0.0049 | pre-steady-state target cleavage rate [2]: 0.00125 ± 0.0032

GGAGACCUAUGAUAUGUACACUACUACCUCA
pre-steady-state target cleavage rate [1]: 0.000945 ± 0.0074 | pre-steady-state target cleavage rate [2]: 0.00152 ± 0.0065

UCGACCUACAGCUUGCAUACAUUUUAGUUA
pre-steady-state target cleavage rate [3, 4]: 0.00102 ± 0.0059

GGAGACCUUACUAUCCAACCUACUACCUCA
pre-steady-state target cleavage rate [1]: 0.17 ± 0.018 | pre-steady-state target cleavage rate [2]: 0.0791 ± 0.034

GGAGUGGAUACUAUACAACCUUGAUGGAGA [g10:g26:cont:t1A]
pre-steady-state target cleavage rate [1]: 0.000131 ± 0.019 | pre-steady-state target cleavage rate [2]: 0.00116 ± 0.0022

GGAGACGAUACUAGACAACCUACUACCUCA
pre-steady-state target cleavage rate [1]: 0.171 ± 0.013 | pre-steady-state target cleavage rate [2]: 0.00452 ± 0.0029

GGAGACCUAUGAUAUGUUCCUACAUACCUCA
pre-steady-state target cleavage rate [1]: 0.00013 ± 0.031 | pre-steady-state target cleavage rate [2]: 0.000159 ± 0.017

UGGACCUACAGCUACGAUAGUAUUUUCAAA
pre-steady-state target cleavage rate [3, 4]: 0.000158 ± 0.017

GGAGACGAUACUAUACAACCUACAUGGAGA [g8:g24:cont:t1A]
pre-steady-state target cleavage rate [1]: 0.00182 ± 0.0043 | pre-steady-state target cleavage rate [2]: 0.00239 ± 0.0034

GGAGAGGAUAGCUAUACAACCUACUACCUCA
pre-steady-state target cleavage rate [1]: 0.035 ± 0.0046 | pre-steady-state target cleavage rate [2]: 0.0146 ± 0.0073

UCGACCUACAGCUUGCAUAUUAUUUAGUUA
pre-steady-state target cleavage rate [3, 5]: 1.5 ± 0.072

AGGUCGUACAGCUUGCAUAGUAUUUAGUUA
pre-steady-state target cleavage rate [3, 5]: 1.44 ± 0.065

UGGACCUACAGCUAGCAUAGUAUUUAGUUA
pre-steady-state target cleavage rate [3, 5]: 1.41 ± 0.074

UCCUGGAUGUCGAACGUAUCUAUUUACUUA
pre-steady-state target cleavage rate [3, 5]: 0.000201 ± 0.023

UCCACCUACAGCUUGGUAAGUAUUUAGUUA
pre-steady-state target cleavage rate [3, 4]: 0.000418 ± 0.0057

UGGACCUACAGCUUGCAUAGCUAUUUAGUUA
pre-steady-state target cleavage rate [3, 4]: 0.00183 ± 0.0029

UCCUGGAUGUCGAACCUUAGUAUAUAGUUA
pre-steady-state target cleavage rate [3, 4]: 0.000191 ± 0.023

UCGACCUACAGCUUGCAUAGGUAUUUAGUUA
pre-steady-state target cleavage rate [3, 4]: 0.0013 ± 0.0057

AGGACCUACAGCUUGCAUAGUAUUAUGAAA
pre-steady-state target cleavage rate [3, 4]: 0.00325 ± 0.0038

UCGACCUACAGCUUGCAUAUAUUUAGUUA
pre-steady-state target cleavage rate [3, 4]: 0.00277 ± 0.003

UCCACCUACAGCUUGGAUAGUAUUUACAAA
pre-steady-state target cleavage rate [3, 4]: 0.00139 ± 0.0028

UCCUGGAACAGCUUGCAUAGUAUAAUCAAA [g8:g23:cont:t1A]
pre-steady-state target cleavage rate [3, 4]: 0.00229 ± 0.0031

UCGACCUACAGCUUGCAAUAGUAUUUAGUUA
pre-steady-state target cleavage rate [3, 4]: 0.0017 ± 0.0045

UGGACCUACAGCUUGCAUAGUAAAUAGAAA
pre-steady-state target cleavage rate [3, 4]: 0.00116 ± 0.0046

UCCACCUACAGGAUGCAUAGUAUUUACAAA
pre-steady-state target cleavage rate [3, 4]: 0.000795 ± 0.0072

UGGACCUACAGCUUGCAUUCAAUUUAGUAA
pre-steady-state target cleavage rate [3, 4]: 0.000494 ± 0.0093

UCCACCUACAGCAAGCAUAGUAUUUACAAA
pre-steady-state target cleavage rate [3, 4]: 0.000653 ± 0.0065

UGGACCUACAGCUUGCAUAGUAAAUACAAA
pre-steady-state target cleavage rate [3, 4]: 0.000237 ± 0.012

UCGACCUACAGCUUGCAUAGUAUUUGUUA
pre-steady-state target cleavage rate [3, 4]: 0.00278 ± 0.0036

UCCACCUACAGCUUGCAUAGUAUUAUGUAA
pre-steady-state target cleavage rate [3, 4]: 0.00151 ± 0.0039

AGGACCUACAGCUUCCAUAGUAUUUUGUUA
pre-steady-state target cleavage rate [3, 4]: 0.00147 ± 0.0051

UCGACCUACAGCUUGCAUAGAUAUUAGAAA
pre-steady-state target cleavage rate [3, 4]: 0.000697 ± 0.01

AGGACCUACACGAUGCAUAGUAUUUACAAA
pre-steady-state target cleavage rate [3, 4]: 0.00107 ± 0.0074

UGGACCUACACGUUGCAUAGUAUUUACAAA
pre-steady-state target cleavage rate [3, 4]: 0.00146 ± 0.0044

UGGACCUACAGCAACCAUAGUAUUUAGUUA
pre-steady-state target cleavage rate [3, 4]: 0.00148 ± 0.0026

UCCUGGAUGUCGAACCAUAGUAUUAUGUUA
pre-steady-state target cleavage rate [3, 4]: 0.000142 ± 0.045

AGGACCUACAGCUUGCUAUGUAUUUACAAA
pre-steady-state target cleavage rate [3, 4]: 0.00051 ± 0.01

UCCACCUACAGCUUGCAUAGUAUUAGUUA
pre-steady-state target cleavage rate [3, 4]: 0.00119 ± 0.0064

UCGACCUACAGCUUGCAUUCUAUUUACAAA
pre-steady-state target cleavage rate [3, 4]: 0.000742 ± 0.0097

UCCUGGAUGUCGAACGUAACUAUAUAGUUA
pre-steady-state target cleavage rate [3, 4]: 0.00026 ± 0.023

UCCACCUACAGCUUGCUAUGUAUUUAGAAA
pre-steady-state target cleavage rate [3, 4]: 0.000228 ± 0.017

UCCACCUAGUGCUUGCAUAGUAUUUUCAAA
pre-steady-state target cleavage rate [3, 4]: 0.00118 ± 0.0025

UGGACCUACAGCUUCGUUAGUAUUUAGAAA
pre-steady-state target cleavage rate [3, 4]: 0.000258 ± 0.012

UCCACCUACAGCUUGCAUAGAUUUUACAAA
pre-steady-state target cleavage rate [3, 4]: 0.000276 ± 0.013

UCGACCUACAGCUUGCUUAGUAUUUUCAAA
pre-steady-state target cleavage rate [3, 4]: 0.00118 ± 0.0054

UCGACCUACAGCUUGCUAUGUAUUUAGUAA
pre-steady-state target cleavage rate [3, 4]: 0.00194 ± 0.0029

AGGACCUACAGCUUCCAUAGUAUAUAGUUA
pre-steady-state target cleavage rate [3, 4]: 0.00131 ± 0.0053

UCCUGGAACAGCAACCAUAGUAUUUAGUUA
pre-steady-state target cleavage rate [3, 4]: 0.00134 ± 0.0045

UCCACCUACAGCUUGCAUAGUUUUAGUUA
pre-steady-state target cleavage rate [3, 4]: 0.000951 ± 0.0071

UCGACCUACAGCUUGAAUAGUAUUUAGUUA
pre-steady-state target cleavage rate [3, 5]: 1.48 ± 0.05

UCCACCUACAGCUUGCAUAGCUAUUUAGUUA
pre-steady-state target cleavage rate [3, 4]: 0.00166 ± 0.0059

AGGACCUACAGCUACGAUAGUAUUUUCAAA
pre-steady-state target cleavage rate [3, 4]: 0.000688 ± 0.0094

UCCUGGAUGUCGAACGUAUCUAUUCUAGUUA
pre-steady-state target cleavage rate [3, 5]: 0.000251 ± 0.03

UCCUGGAUGUGCUUGGUUAGUAUUUAGUAA
pre-steady-state target cleavage rate [3, 5]: 0.00438 ± 0.0049

UCGACCUACAGCUUGCAUAGUAAAUAGAAA
pre-steady-state target cleavage rate [3, 4]: 0.00158 ± 0.0054

AGGACCUACACGUUGCAUAGUAUUUACAAA
pre-steady-state target cleavage rate [3, 4]: 0.00234 ± 0.0033

AGGACCUACAGCUUGCAAUGUAUUUUCAAA
pre-steady-state target cleavage rate [3, 4]: 0.000775 ± 0.0067

UCCACCUACAGCUUGCUAUGUAUUUACAAA
pre-steady-state target cleavage rate [3, 4]: 0.000178 ± 0.014

UCGACCUACAGGAAGCAUAGUAUUUACAAA
pre-steady-state target cleavage rate [3, 4]: 0.000657 ± 0.0088
